Source: the supplement of paper PMC8728848
The other results are listed elsewhere or left out.

How the values were obtained:
[1] = target: Neu5Gc(a2-8)Neu5Gc(a2-6)Gal(b1-4)GlcNAc; test: glycan array binding signal (z-score within array); higher = stronger binding; conditions: glycan notation: IUPAC condensed, linker removed
Method in brief: (§1)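 From the Consortium for Functional Glycomics database, 3228 arrays were curated, keeping only those whose protein sequence was available. Binding is given as a within-array Z-score averaged across arrays sharing a protein sequence and across linkers. Negative Z-scores can be read as non-binding.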

[2] = target: Neu5Gc(b2-6)Gal(b1-4)GlcNAc; test: as above; conditions: glycan notation: IUPAC condensed, linker removed
Method in brief: as §1

B1: FimA (Actinomyces oris) (protein)
chain: MHHHHHHSSGVDLGTENLYFQSNAETPNYGNIKTDATGSLVIHKHLTGGGKDIGTPTGTAQNADDKGPAVEGVVFTAYPITDINLKDPAGWDTISNLSRTGVPDSACANPAAPTLGAHQFGTPKVSPATTKEGLATITEMPVQAYLVCETTTPGDIVQKAKPFVVTIPHPNTAAGADGQWIYDVNVYPKNEAIDVDKTIQAQKLNGYGVGSLIKFPVESTAPTLDAKSFYKYFQLKDTLDERLSEVTATDVSLEGTPLQPTDYKVETKQQTVTVTFTAEGLKKIKAAPGKKVSAVFQGKVTKAGNGAITNRAQVISDTLYAEQPPTPETPPTDPENPPTSDEVISRWGDLSIKKVDTHQQGQTKAGLQGAQFQLYKAKNAYANTCSNEKEGAPIAINGQTTLTTDAQGAIDIKGLFISDSIDGADRDNQVNAMERCYVLVETKAPAGYVLPAGNGAATPVKVKAGEETTDNVTVENTKQSVPGLPLTG
For B1, the “glycan array binding signal (z-score)” value [1] was 0.225 and the “glycan array binding signal (z-score)” value [2] was 0.099.
